The chains are these.
B1: PSPC1 (protein, UniProt Q8WXF1 1-523)
chain: MMLRGNLKQVRIEKNPARLRALESAVGESEPAAAAAMALALAGEPAPPAPAPPEDHPDEEMGFTIDIKSFLKPGEKTYTQRCRLFVGNLPTDITEEDFKRLFERYGEPSEVFINRDRGFGFIRLESRTLAEIAKAELDGTILKSRPLRIRFATHGAALTVKNLSPVVSNELLEQAFSQFGPVEKAVVVVDDRGRATGKGFVEFAAKPPARKALERCGDGAFLLTTTPRPVIVEPMEQFDDEDGLPEKLMQKTQQYHKEREQPPRFAQPGTFEFEYASRWKALDEMEKQQREQVDRNIREAKEKLEAEMEAARHEHQLMLMRQDLMRRQEELRRLEELRNQELQKRKQIQLRHEEEHRRREEEMIRHREQEELRRQQEGFKPNYMENREQEMRMGDMGPRGAINMGDAFSPAPAGNQGPPPMMGMNMNNRATIPGPPMGPGPAMGPEGAANMGTPMMPDNGAVHNDRFPQGPPSQMGSPMGSRTGSETPQAPMSGVGPVSGGPGGFGRGSQGGNFEGPNKRRRY
B2: SAP30 (protein, UniProt O75446 1-220)
chain: MNGFTPDEMSRGGDAAAAVAAVVAAAAAAASAGNGTGAGTGAEVPGAGAVSAAGPPGAAGPGPGQLCCLREDGERCGRAAGNASFSKRIQKSISQKKVKIELDKSARHLYICDYHKNLIQSVRNRRKRKGSDDDGGDSPVQDIDTPEVDLYQLQVNTLRRYKRHFKLPTRPGLNKAQLVEIVGCHFRSIPVNEKDTLTYFIYSVKNDKNKSDLKVDSGVH

Protein sequences, listed by entry. Tags and fused reporters are not part of them. Lines headed by an entry give the natural chain unless they say otherwise; changes in a name come on top.
UniProt Q13547: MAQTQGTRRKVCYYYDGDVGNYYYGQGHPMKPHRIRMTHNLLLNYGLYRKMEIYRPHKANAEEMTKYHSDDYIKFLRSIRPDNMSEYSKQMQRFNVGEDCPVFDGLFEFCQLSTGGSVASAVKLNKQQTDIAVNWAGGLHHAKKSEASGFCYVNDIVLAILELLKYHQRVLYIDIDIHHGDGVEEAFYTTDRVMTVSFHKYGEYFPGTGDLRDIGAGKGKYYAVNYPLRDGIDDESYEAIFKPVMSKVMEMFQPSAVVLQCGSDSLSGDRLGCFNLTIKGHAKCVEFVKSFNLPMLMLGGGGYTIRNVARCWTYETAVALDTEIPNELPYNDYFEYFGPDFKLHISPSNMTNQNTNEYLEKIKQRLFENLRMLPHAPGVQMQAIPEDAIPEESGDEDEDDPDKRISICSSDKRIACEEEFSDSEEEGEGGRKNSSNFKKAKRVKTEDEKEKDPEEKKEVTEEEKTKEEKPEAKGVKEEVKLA
UniProt P35222: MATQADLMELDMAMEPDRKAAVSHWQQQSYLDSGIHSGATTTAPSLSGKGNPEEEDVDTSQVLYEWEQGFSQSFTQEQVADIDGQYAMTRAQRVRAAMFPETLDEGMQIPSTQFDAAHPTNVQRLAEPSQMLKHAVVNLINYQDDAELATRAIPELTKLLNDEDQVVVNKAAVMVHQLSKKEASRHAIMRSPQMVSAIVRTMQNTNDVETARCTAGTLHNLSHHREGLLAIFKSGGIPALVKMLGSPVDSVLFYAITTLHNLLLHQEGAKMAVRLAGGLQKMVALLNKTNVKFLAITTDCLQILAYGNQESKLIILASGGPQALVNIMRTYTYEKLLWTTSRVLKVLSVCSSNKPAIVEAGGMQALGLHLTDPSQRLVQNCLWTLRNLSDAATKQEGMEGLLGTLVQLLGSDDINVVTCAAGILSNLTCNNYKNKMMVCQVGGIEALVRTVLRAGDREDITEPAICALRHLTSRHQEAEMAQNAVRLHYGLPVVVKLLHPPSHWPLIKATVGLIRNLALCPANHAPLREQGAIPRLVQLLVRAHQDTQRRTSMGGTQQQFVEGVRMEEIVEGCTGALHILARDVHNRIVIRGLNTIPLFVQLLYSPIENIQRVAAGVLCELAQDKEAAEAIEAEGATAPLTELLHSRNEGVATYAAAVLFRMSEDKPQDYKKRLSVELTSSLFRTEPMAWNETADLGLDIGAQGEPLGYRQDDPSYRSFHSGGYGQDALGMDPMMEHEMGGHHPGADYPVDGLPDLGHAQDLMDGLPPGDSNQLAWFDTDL

Results are given in words; binding and its absence hold for the method and conditions named. In cells and extracts the contact can be indirect. A yes stands for co-enrichment or nearness to the bait. Other partners may have been found.

The target in this assay is catalytic domain of TET2 (Tet2CD) (UniProt Q6N021). Briefly: affinity purification with mass spectrometry; IP of Tet2CD (antibody normally anti-Flag, overnight 4 °C, Protein A/G magnetic beads) from whole-cell lysates of SW480 and SW620 cells; trypsin digestion on beads; label-free quantification.
For HDAC1 (from UniProt Q13547 1-482), the binding entry was “binds”.

Take “β-catenin (encoded by the CTNNB1 gene) (from UniProt P35222 1-781)”: the binding result is recorded as “binds”.

Turning to B1, the binding entry is “binds”.

As to B2, the binding entry is listed as “binds”.

For the origin of these results see article PMC10449923.
